# From publication PMC12370185
# The list shows a part of the results. For part of these data: At the low end of the ranking the order means little.
# Columns and labels:
# Details in all cases: 10 mM Tris-Cl pH 7.5, 50 mM NaCl, 1 mM DTT, 0.25 mg/ml BSA, 2 mM MgCl2, 0.025% Nonidet P-40, 5% glycerol; 28 nM nucleosome library; 10 min on ice then 30 min …; high values mean tight binding; double strand, one strand shown
# KLF4 + histone octamer = assay: EMSA with sequencing
# OCT4 + histone octamer = assay: EMSA with sequencing
# SOX2 + histone octamer [1] = assay: EMSA with sequencing
# [2] = test system: c-MYC + MAX + histone octamer; assay: Pioneer-seq (competitive nucleosome EMSA with sequencing)
# [3] = test system: c-MYC + MAX + histone octamer; assay: EMSA with sequencing
# SOX2 + histone octamer [4] = assay: Pioneer-seq (competitive nucleosome EMSA with sequencing)
Sequence,binding signal (log2 relative supershift) (KLF4 + histone octamer),binding signal (log2 relative supershift) (OCT4 + histone octamer),binding signal (log2 relative supershift) (SOX2 + histone octamer [1]),binding signal (log2 relative supershift) [2],binding signal (log2 relative supershift) [3],binding signal (log2 relative supershift) (SOX2 + histone octamer [4])
GATGGACCCTATACGCGGCAAACAGACAGGGGGCCAAAACCAAGGCTTCTCCTCCCCAAGCCGACACCCCACACTTCCTACATGTGGTGGCTGCCCACGGGCTGGAAGACAGTGCCTCTCCCATGACCCCTCAGTGCATCACCCCACCCATCTGAGCAACAGGTTTCACCCAGAAGCAGCAAAAAGCTACGGCACTTTTGACATTTAATATGCCAGTCGGATAGTGTTCC,1.76,0.43,0.209,-0.145,–,–
GATGGACCCTATACGCGGCTAATTTAGGGCATCACTTTTCCTGATATTGGCATGCTAAATATTACTTCATACTCAGTTTGGTTCCACAAGTAAGCACACACTGTATATAAAGAACTGCTTGGCTTGTATGAGTCACAGGGTCTCTGCATCCCTGCCTTTGAGAAGCTTACACTGCAGTAGGGAAGGTAAACAATTTGCTGTGTGTAAAGCTGCCAGTCGGATAGTGTTCC,1.12,0.0369,0.274,-0.0941,–,–
GATGGACCCTATACGCGGCTAAAACTCTAAAAAGTATAGGGCCGTTATGGGAATAAACAAAATAACATAGCACTTTTGCCTGGCACATAAAAATGTTCAGAAGTGTTTGCATTATCATGAGAACCCTCCATACATAAACACGGACACACTGTGCTCACCTACTAATAGCCATTTATCACGTATTTCCTAAGCACTGGGTGGGACATGGTGTGCCAGTCGGATAGTGTTCC,1.96,0.296,0.357,-0.0961,–,–
GATGGACCCTATACGCGGCGTGTGCATATGCCCGTGTGTATCCGTATGTGCGTGTTTGTGTGTGCATGTGCATGTGTGCATGCTTGTGCATCCGTGTGTGCATGTGCACGTGTCCATGCACATGTGGGTGGGTGTGCGTATATCTGTGTGCATGTGCATGTGTATCTGTATGTGTGTGCCCAAGTGCATGTATGTATGTGCGTGCGCATGTGCCAGTCGGATAGTGTTCC,0.78,0.461,–,–,1.14,-0.459
GATGGACCCTATACGCGGCTTCCATTGCCACTCCTTCCTAGAGTAAAGGAACTGCTAATCCTCCCTCTGACTCATAACTAAAGCCAGCTTTCAAAGTGGTGAGGTTGCAGAGCTTGAGGGAGGGGCCTCATGGTCCCAAATACCTACTCCACTTGTTTGCTACTCCAAGGAATTTGTATACAGTCAGTTAATATTATTATCACTCACTCCTGCCAGTCGGATAGTGTTCC,2.19,0.00633,0.946,-0.235,–,–
GATGGACCCTATACGCGGCCTGACCTTGGGGCATGTGCAGTGTGGACTGTGTGTGCGTGTGCATACGCACATACATTTGTACGTTTGTGGGATACTGGTGGGTGCACACGCTTTGTATGTGTGGACGTACACGTGTCTGTGTGTGGGGTGAGTATGCACGTGTGTTTACACATATGGGGTTTGGGTGTGTGCGTGTTCATGCATATGATGTGCCAGTCGGATAGTGTTCC,2.05,0.365,–,–,1.23,-0.289
GATGGACCCTATACGCGGCAGAGTCAAAAACACTTCCAAATAAGGAAAGAGGAATAAGCTATGACCTAATGCTTGCTTGGACATGTTCAGGCATGCTGGGACAAATATCTAGGCTAAAATGTGGGAGCTAAGAGCACGGAGTGTATTGATTTCTTAATTATGGCTAGCAGATATTTAAGAATATTAGCACAGATCTTTGAGTAAATTTTGTGCCAGTCGGATAGTGTTCC,0.00105,0.278,0.25,-0.419,–,–
GATGGACCCTATACGCGGCATTTACACATTTCATTTCGTGACAGGAAATAACACTGTCAGCAGCACAGTTGCTCACGGCATGTGCTGCAGGGGAGCTGACGCACGGAGGGTGGAAAGGGTGGAGGTGGGACAACGGGTGTTTGTGCCAGCATGTCATATACCGTCCTGACCTGCTGCATGCTCTTCCTTGCCCCGGGGCAGGTCTGGCAGTGCCAGTCGGATAGTGTTCC,1.22,0.892,–,–,0.878,-0.699
GATGGACCCTATACGCGGCGTTTCTTCGCCCCACTTTATAACAACATCAGTCACATTCACATACAAAGGATGTGGAACAGAAAAGACCCAAAGAGCTTTGCAAATGCTCCTGGAGGGCACTGGCAGGCACTGGTTGAGCAAGTTCTCTAATGGTGTGTCAGTGGTGAGGTACAGTTCAACAAAGAGTTTTCAGAGGCTTTAATTATATTATGCCAGTCGGATAGTGTTCC,1.61,0.136,1.38,-0.0916,–,–
GATGGACCCTATACGCGGCGTTTAGAAGCCATATCAGATGAAAGATACGGGGCCTTTTTTATGCATAATGTAATGCACTCCAGTACGTGGCCATCACACCCCGTCTAATGGCTGCTGAGAGGCCTTTTTACCATGGCTGCCCTCTTATCTTCCAGCCTGTTCTTTATATACATCATTGTCAGCCAAATTCTGGAGGGGTGAAGGGTTGTTTGCCAGTCGGATAGTGTTCC,0.765,0.854,0.844,-0.237,–,–
GATGGACCCTATACGCGGCATGATTCTCGCCATCAGCAGGGAGAAGGAGCGCCTCCCCATGTGGGACCTGGAGAAACAGAGGGTGGAGGGAGCATAGAGAGTCTGTTCTAAGCTGCAAAGCAAAGGCCTGGCGACCTAGGAGACCATGGAGTTCCAGAAAGTGATAGTTATGCAGAGCGAATGGAGGGAATCAGCACGCAGCGACTTTACTGCCAGTCGGATAGTGTTCC,1.14,0.228,–,–,0.602,-0.408
GATGGACCCTATACGCGGCGTTTCAGAAAGTGTATTTTCTATGAAACTCTGCAACTATTAGGATGTGATTGTTCATGGGCACAGACAGGAAATACGTGTTTAACAATGTCCTCAATAGCCCCAGCTCCAAGAAGGGGTCCCACCTATGGTGGCTGGTTGGCAGATAGTTATTGAAATTCAAAGTGCATGACTAGCATTTCTTGAGAAACTTGCCAGTCGGATAGTGTTCC,0.232,0.249,0.571,-0.418,–,–
GATGGACCCTATACGCGGCTTCACCCTCCTGTCCCTCCGGACCTGCAATTCTTCACACCCTCTGCAGCGCACAGGGTGCTCAGGACACATGTGCACGGTGGGGGCTGGCGATGCTTCCTCGCCCCCACCACCCGCAAGCTTGCAGAGAGCTGTAGTGCCCAGGATGTATGCCAGGATAGGAATTCCACGGTTCCAGGCATGCCAAGAAAATGCCAGTCGGATAGTGTTCC,2.48,0.426,–,–,0.612,-0.201
GATGGACCCTATACGCGGCAATGACTATGGTAAATTCCATTCTCAACCACACATTAACTCAGAGAATTCTTGAGCTACACAGTGACAGACTGAGCTCAAGGAGAAAGACAGGCATTCTGAGTTTCAGACTACGGAGCCATTTGGAGGTGACATGTACAGAACAATGCACAGCTTTGAGATTTTATATTGGTCCTTCCCTGCCCAATGTCATGCCAGTCGGATAGTGTTCC,1.97,0.136,1.24,-0.163,–,–
GATGGACCCTATACGCGGCAAATAATGGATGCAGGAATTCTGTATTCCATTCATATTCACTTGCTTTCAGCAGGATGAAGCACTTGAAGGGAAGGCGGTGCATCTCTCCTCTCGCTTTCCACCCACCTTTATCCTGGAAATTCAGACTGCCCTGTTGCTATTCACATGAAGCCTCAGTACAAGCCTTGCTCATAGCAAAAGAAGGCACAGTGCCAGTCGGATAGTGTTCC,0.851,0.44,1.3,-0.178,–,–
GATGGACCCTATACGCGGCACCCTCTAGTGTTGGGGACTATAAATCCACACCCAAGAGAGGGCCAGTTCCTGACTTAATTGGAGGGCTAAACTCATAGCAGTGGGCAGCAACCAGCATTACAATACAGTCCTGTGCTGCTTAACAATGGAGAGTTCTGAAAAGGGCATTGTTAGGTGATTTCATTGTTGCGTGAATATCATAGAGTGTACTGCCAGTCGGATAGTGTTCC,2.23,0.0246,0.964,-0.332,–,–
GATGGACCCTATACGCGGCTGTAATTTACACAGGAAAGTCAACTTGAAATTCCATCAGCAAAATCAGCAGAACAATACTCATTTATACATTCAATACACAAGGACATACTGACACCCACCCTGTGCCACGTATTGAGCCACCAGACCTAACTATGGTTTTAAAAATATTACTCTGAATTCCACATGGAACAGATGGGAAAGGTAGGCACATGCCAGTCGGATAGTGTTCC,0.998,0.382,–,–,0.698,-0.112
GATGGACCCTATACGCGGCTCATTTAAACATTCAACAACAGGAATACCACTGAAATAAAGGCCAAACATAAAAGGGTGCTTCTCGGTCTTCCACCATAGGAGTCCCTCTTGTGGCCTCTGGGAGCACCAGAATCCCTATGAAACAACTGTATTTATTGTATCAGGATGAGAATGAGAAGTGCCTCAGTCAAAGGCTGAGTGACGAATGGGTGCCAGTCGGATAGTGTTCC,1.1,0.183,1.28,-0.298,–,–
GATGGACCCTATACGCGGCTAAGTAACTTGTCCAAGTTGTTCACACAGTGAAGGGAGGGGCCAAGATATGATGGCTGGGAGTCTAATTGCAGTTCCCTGAGCCATGTGCCTTTCTCTTCACTGAGGACTGCCCCATTCTTGAGTGCCAAACGTCACTAGTAACAGGGTGTGCCTAGATAATTTATGATCCAAACTGAGTCAGTTTGGAAATGCCAGTCGGATAGTGTTCC,2.5,0.266,0.311,-0.0705,–,–
GATGGACCCTATACGCGGCCTCACACTGCTAATAAAGACACACCCCAGACTGGGTAATGTTTAAAGGAAAGAGGTCAAATGTACTCACAGTTCCACGTGGCTGGGGAGGACTCACAAGTGGTGGAAGGCAAAGGAGAAGCCAAGGCGTGTTGTACATGGCAGCAAGGCAATCATACAAGGGAACTTCCATTTATAAAACCATAAGATCTCTGCCAGTCGGATAGTGTTCC,2.25,0.0406,0.925,-0.0755,–,–
GATGGACCCTATACGCGGCAAAAGCTTGTAAAAGTTAGCATAAATCTTACAACCATAAACACTACTTTTTCCCCCACAGCAATGGTTGCCCCTCTCTTATTCTAATGATCTGTTCTGTGGTGTACTTACAGGAATGCCAAAAAGTGCATTTGGGTGGGGCTTTTCCATACCTTTCATAACTGTGGAGAACAATTAACAATGAGCTGAGTCTGCCAGTCGGATAGTGTTCC,1.85,0.526,2.1,-0.389,–,–

# 2 records picked at random from the list so far:
Sequence,binding signal (log2 relative supershift) (KLF4 + histone octamer),binding signal (log2 relative supershift) (OCT4 + histone octamer),binding signal (log2 relative supershift) (SOX2 + histone octamer [1]),binding signal (log2 relative supershift) [2],binding signal (log2 relative supershift) [3],binding signal (log2 relative supershift) (SOX2 + histone octamer [4])
GATGGACCCTATACGCGGCATTTACACATTTCATTTCGTGACAGGAAATAACACTGTCAGCAGCACAGTTGCTCACGGCATGTGCTGCAGGGGAGCTGACGCACGGAGGGTGGAAAGGGTGGAGGTGGGACAACGGGTGTTTGTGCCAGCATGTCATATACCGTCCTGACCTGCTGCATGCTCTTCCTTGCCCCGGGGCAGGTCTGGCAGTGCCAGTCGGATAGTGTTCC,1.22,0.892,–,–,0.878,-0.699
GATGGACCCTATACGCGGCTAAAACTCTAAAAAGTATAGGGCCGTTATGGGAATAAACAAAATAACATAGCACTTTTGCCTGGCACATAAAAATGTTCAGAAGTGTTTGCATTATCATGAGAACCCTCCATACATAAACACGGACACACTGTGCTCACCTACTAATAGCCATTTATCACGTATTTCCTAAGCACTGGGTGGGACATGGTGTGCCAGTCGGATAGTGTTCC,1.96,0.296,0.357,-0.0961,–,–
